From article PMC7653941
Results are given in words; binding and its absence hold for the method and conditions named. Some results given as binding are weak or reduced against the parent protein; the word gives no strength.

By UniProt entry, the sequences of proteins in these tests, tags left out. Residues count along the entry.
UniProt P08195, residues 102-630: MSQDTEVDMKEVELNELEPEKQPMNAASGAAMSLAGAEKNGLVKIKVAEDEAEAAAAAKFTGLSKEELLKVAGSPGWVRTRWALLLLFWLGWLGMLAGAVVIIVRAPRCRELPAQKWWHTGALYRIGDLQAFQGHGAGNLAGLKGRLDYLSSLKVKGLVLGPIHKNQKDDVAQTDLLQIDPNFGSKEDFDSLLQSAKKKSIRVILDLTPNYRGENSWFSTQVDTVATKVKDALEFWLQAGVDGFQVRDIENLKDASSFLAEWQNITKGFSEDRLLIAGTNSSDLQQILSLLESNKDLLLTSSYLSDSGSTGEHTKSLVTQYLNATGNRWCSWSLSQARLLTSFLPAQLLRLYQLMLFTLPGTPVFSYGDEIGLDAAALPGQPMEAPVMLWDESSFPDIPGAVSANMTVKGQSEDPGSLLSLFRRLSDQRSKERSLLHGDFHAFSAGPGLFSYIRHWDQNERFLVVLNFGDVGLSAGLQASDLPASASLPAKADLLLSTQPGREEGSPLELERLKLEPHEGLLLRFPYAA

Target: 4F2 cell-surface antigen heavy chain (4F2hc), human (human) (UniProt P08195)
Test: cryo-EM structure; recombinant LAT2-4F2hc complex after two-step affinity purification, incubated with Leu or Trp; inward-open conformation; 2.9 Å (Leu) and 3.4 Å (Trp); both purified

B1: L-type amino acid transporter 2 (LAT2), human (protein, UniProt Q9UHI5 2-535)
chain: EEGARHRNNTEKKHPGGGESDASPEAGSGGGGVALKKEIGLVSACGIIVGNIIGSGIFVSPKGVLENAGSVGLALIVWIVTGFITVVGALCYAELGVTIPKSGGDYSYVKDIFGGLAGFLRLWIAVLVIYPTNQAVIALTFSNYVLQPLFPTCFPPESGLRLLAAICLLLLTWVNCSSVRWATRVQDIFTAGKLLALALIIIMGIVQICKGEYFWLEPKNAFENFQEPDIGLVALAFLQGSFAYGGWNFLNYVTEELVDPYKNLPRAIFISIPLVTFVYVFANVAYVTAMSPQELLASNAVAVTFGEKLLGVMAWIMPISVALSTFGGVNGSLFTSSRLFFAGAREGHLPSVLAMIHVKRCTPIPALLFTCISTLLMLVTSDMYTLINYVGFINYLFYGVTVAGQIVLRWKKPDIPRPIKINLLFPIIYLLFWAFLLVFSLWSEPVVCGIGLAIMLTGVPVYFLGVYWQHKPKCFSDFIELLTLVSQKMCVVVYPEVERGSGTEEANEDMEEQQQPMYQPTPTKDKDVAGQPQP
binding: binds
